In patent publication EP0429245B1, “A therapeutic agent for central nervous diseases” (priority 1989, dated 1996):
At least one peptide structure holds a part that was inferred or is arguable (an end, a ring closure or a residue). Marks after values point to notes of the source that are not given here.

Experiments:
[1] = system: rolling mouse Nagoya (hereditary ataxia model); assay: stay time on drum, rolling mouse Nagoya (hereditary ataxia model); type: in vivo, rolling mice Nagoya; details: control 12.9 (1.6)
[2] = system: senility-accelerated mice (SAM); assay: plus maze test, low-anxiety-like behavior of senility-accelerated mice; type: in vivo, SAM-P/8 (senility-accelerated mice); details: SAM-P/8, repeated daily s.c. administration, day 6, SAM-P/8 saline control 33.6 (3.1)
[3] = system: cycloheximide-induced amnesia; assay: passive avoidance test in cycloheximide-induced amnesia model; type: in vivo, male mice (C57BL strain, 5-week-old); details: 0.2 mg/kg/day as TRH once a day for 9 consecutive days, s.c.
[4] = system: Pentobarbital sleeping time; assay: pentobarbital sleeping time-shortening effect (brain function stimulating effect); type: in vivo, male rats (JCL:Wistar, 7-week-old); details: for Sleep time: mean (S.E.)

Structure (SMILES): NC(=O)[C@@H]1CCCN1C(=O)[C@H](Cc1c[nH]cn1)NC(=O)[C@@H]1CCC(=O)N1 [aqueous solution of TRH tartarate]
- Stay time [in seconds; mean (S.E.)] ([1]; single s.c. dose 3 mg/kg as TRH, p<0.05): 20.3 (2.5)* seconds
- Stay time [in seconds; mean (S.E.)] ([1]; single s.c. dose 10 mg/kg as TRH, p<0.01): 25.3 (4.2)** seconds
- % Open arm entry rate [mean (standard error)] ([2]; 0.05 mg/kg/day): 32.7 (2.9)** %
- % Open arm entry rate [mean (standard error)] ([2]; 0.2 mg/kg/day): 29.2 (3.2)* %
- Latency [3]: 18.0 s
- Sleep time ([4]; 3 mg/kg as TRH s.c., control 69.0 (2.6)): 70.6 (4.2) minutes
- Sleep time ([4]; 10 mg/kg as TRH s.c., p<0.05 vs control): 58.6 (2.5)* minutes
- Sleep time ([4]; 20 mg/kg as TRH s.c., p<0.05 vs control): 56.0 (4.0)* minutes
- Sleep time ([4]; 50 mg/kg as TRH s.c., p<0.001 vs control): 45.6 (1.6)*** minutes
- dose with significant shortening of sleep time ([4]; s.c., dose-dependent effect): ≥ 10 mg/kg
